These are yes or no findings as the source states them, for the method shown. In cells and extracts the contact can be indirect. Some binding calls cover weakened binding; strength is not graded here. For part of these data: Where a sequence is shown, tags or fusion partners need not be part of it.
Assays:
[1] = biological target: T1, Cbp3^ProtA (S. cerevisiae) (UniProt P21560); experiment: co-IP + native gel or EMSA; isolated Cbp3^ProtA-containing complexes analysed by BN-PAGE and second dimension SDS-PAGE
T1 sequence: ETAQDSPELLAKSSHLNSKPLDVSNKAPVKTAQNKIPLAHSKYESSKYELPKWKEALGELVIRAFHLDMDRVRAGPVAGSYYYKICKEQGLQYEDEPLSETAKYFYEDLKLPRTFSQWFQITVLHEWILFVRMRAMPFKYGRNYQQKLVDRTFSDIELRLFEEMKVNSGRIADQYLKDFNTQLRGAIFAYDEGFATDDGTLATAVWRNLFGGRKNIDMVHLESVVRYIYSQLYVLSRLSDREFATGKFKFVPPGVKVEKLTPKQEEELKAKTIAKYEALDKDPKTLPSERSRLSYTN

By UniProt entry, the sequences of proteins in these tests, tags left out. Residues count along the entry.
UniProt P00830, residues 34-511: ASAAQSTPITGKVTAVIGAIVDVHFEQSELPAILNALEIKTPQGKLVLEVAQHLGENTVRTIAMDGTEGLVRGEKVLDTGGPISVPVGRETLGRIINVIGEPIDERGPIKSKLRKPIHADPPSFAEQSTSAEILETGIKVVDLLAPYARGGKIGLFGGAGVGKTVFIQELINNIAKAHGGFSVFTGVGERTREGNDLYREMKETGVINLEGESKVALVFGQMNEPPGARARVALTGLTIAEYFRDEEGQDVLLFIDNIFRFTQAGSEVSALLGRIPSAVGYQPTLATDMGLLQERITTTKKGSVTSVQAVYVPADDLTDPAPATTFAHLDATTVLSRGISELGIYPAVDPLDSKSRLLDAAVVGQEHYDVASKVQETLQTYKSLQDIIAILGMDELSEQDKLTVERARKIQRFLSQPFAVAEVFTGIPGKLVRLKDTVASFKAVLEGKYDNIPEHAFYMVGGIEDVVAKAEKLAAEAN

[2] = biological target: T2, Cbp6 with a C-terminal Protein A tag (S. cerevisiae) (UniProt P07253); experiment: co-IP; IgG-affinity chromatography of Cbp3, Cbp4 or Cbp6 with a C-terminal Protein A tag from mitochondria, in part after radiolabeling of mitochondrial-encoded proteins
T2 sequence: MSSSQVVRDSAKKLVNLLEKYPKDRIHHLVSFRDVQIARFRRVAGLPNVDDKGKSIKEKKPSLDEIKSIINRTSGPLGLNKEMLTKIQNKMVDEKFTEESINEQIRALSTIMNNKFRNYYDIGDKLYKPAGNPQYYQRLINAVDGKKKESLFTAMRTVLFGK

[3] = biological target: T3, Cbp4 with a C-terminal Protein A tag (S. cerevisiae) (UniProt P37267); experiment: as above
T3 sequence: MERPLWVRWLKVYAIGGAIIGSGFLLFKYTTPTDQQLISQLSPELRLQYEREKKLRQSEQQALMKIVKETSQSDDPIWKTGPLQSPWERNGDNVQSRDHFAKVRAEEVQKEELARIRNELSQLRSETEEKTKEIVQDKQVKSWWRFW

[4] = biological target: T1, Cbp3^ProtA (S. cerevisiae); experiment: as above
[5] = biological target: T4, Atp10^ProtA (S. cerevisiae) (UniProt P18496); experiment: co-IP + native gel or EMSA; Atp10^ProtA complexes purified by IgG-affinity chromatography, eluted natively by TEV cleavage, analysed by BN-PAGE (in part second dimension SDS-PAGE) with western blotting or autoradiography
T4 sequence: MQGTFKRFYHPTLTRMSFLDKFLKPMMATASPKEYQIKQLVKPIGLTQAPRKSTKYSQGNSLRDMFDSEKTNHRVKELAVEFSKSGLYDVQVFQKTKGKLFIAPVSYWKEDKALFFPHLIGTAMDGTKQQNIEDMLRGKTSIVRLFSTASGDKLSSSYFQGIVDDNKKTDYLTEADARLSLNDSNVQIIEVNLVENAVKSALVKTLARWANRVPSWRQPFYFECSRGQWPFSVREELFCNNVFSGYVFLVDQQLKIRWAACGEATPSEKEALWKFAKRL

[6] = biological target: T4, Atp10^ProtA (S. cerevisiae); experiment: co-IP; IgG-affinity chromatography of Atp10^ProtA; mitochondria (wild-type or ina22Δ background, control or chloramphenicol-pretreated, in part after in organello [35S] labelling) solubilised in 1% digitonin, 160 mM NaCl, 20 mM Tris-HCl pH 7.5, 10% glycerol (low stringency), 4 °C
[7] = biological target: Atp2 (S. cerevisiae (endogenous in BY4741-derived mitochondria)) (UniProt P00830); experiment: co-IP; two-step: Atp10^ProtA complexes isolated natively by IgG-affinity chromatography and TEV cleavage, the eluate then immunoprecipitated with anti-Atp2 antibodies or control pre-immune serum; western blotting
[8] = biological target: T4, Atp10^ProtA (S. cerevisiae); experiment: as above
[9] = biological target: T5, Ina17 (S. cerevisiae (endogenous in BY4741 mitochondria)) (UniProt Q02888); experiment: co-IP; rabbit antiserum (anti-Ina22, anti-Ina17 or anti-Atp23) coupled to Protein A sepharose; mitochondria solubilised in 1% digitonin, 160 mM NaCl, 20 mM Tris-HCl pH 7.5, 10% glycerol, 4 °C; wild-type or ina22Δ mitochondria, control or chloramphenicol-pretreated, in part after in organello [35S] labelling
T5 sequence: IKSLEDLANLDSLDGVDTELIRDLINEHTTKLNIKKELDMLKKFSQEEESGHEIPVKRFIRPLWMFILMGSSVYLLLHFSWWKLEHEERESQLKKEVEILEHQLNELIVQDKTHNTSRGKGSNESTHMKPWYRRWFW

[10] = biological target: T6, Ina22 (S. cerevisiae (endogenous in BY4741 mitochondria)) (UniProt P40576); experiment: as above
T6 sequence: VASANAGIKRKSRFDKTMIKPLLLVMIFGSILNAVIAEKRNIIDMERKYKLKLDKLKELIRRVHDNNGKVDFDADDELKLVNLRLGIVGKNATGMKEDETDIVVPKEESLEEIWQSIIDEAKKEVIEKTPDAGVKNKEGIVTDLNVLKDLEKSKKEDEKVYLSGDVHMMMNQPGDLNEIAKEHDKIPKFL

[11] = biological target: T7, Ina22^FLAG (S. cerevisiae) (UniProt P40576); experiment: co-IP + native gel or EMSA; native anti-FLAG isolation of Ina22^FLAG complexes from chloramphenicol-pretreated mitochondria after in organello labelling; BN-PAGE, second dimension SDS-PAGE, autoradiography and western blotting
T7 sequence: T6 sequence

[12] = biological target: T7, Ina22^FLAG (S. cerevisiae); experiment: cross-linking; chemical crosslinking of mitochondria (250 μM cross-linker, 20 mM HEPES pH 7.4, 100 mM NaCl, on ice 30 min), in part after radiolabeling of mitochondrial-encoded proteins; Ina22^FLAG purified under denaturing conditions (1% SDS, then Triton X100); autoradiography or western blotting

Measured: binding

B1: Ina22 (protein, UniProt P40576 27-216)
chain: T6 sequence
binds: [1] | [2] | [3] | [4] | [5] | [6]

B2: Atp5 (protein, UniProt P09457 18-212)
chain: ASKAAAPPPVRLFGVEGTYATALYQAAAKNSSIDAAFQSLQKVESTVKKNPKLGHLLLNPALSLKDRNSVIDAIVETHKNLDGYVVNLLKVLSENNRLGCFEKIASDFGVLNDAHNGLLKGTVTSAEPLDPKSFKRIEKALSASKLVGQGKSLKLENVVKPEIKGGLIVELGDKTVDLSISTKIQKLNKVLEDSI
binds: [7] | [8]

B3: Ina22 fragment f1 (domain or fragment, UniProt P40576 27-188)
chain: VASANAGIKRKSRFDKTMIKPLLLVMIFGSILNAVIAEKRNIIDMERKYKLKLDKLKELIRRVHDNNGKVDFDADDELKLVNLRLGIVGKNATGMKEDETDIVVPKEESLEEIWQSIIDEAKKEVIEKTPDAGVKNKEGIVTDLNVLKDLEKSKKEDEKVYL
binds: [9]

B4: Cbp4 (protein, UniProt P37267 1-147)
chain: T3 sequence
binds: [1]

B5: Atp23 (enzyme, UniProt P53722 1-227)
chain: MNSSGDNAGFEWWRRTMQYKTGIGLTPEEKTRYEDDSKARELKKECLKCYEYRDWMLKYSPTVRFMVQAITKLNKGSDSKFDDSKIICDYCPDWKGGGFHPELGILLCQNRLRDKWHLEDTLSHELIHYFDDLKWQIDWLNLKHHACSEIRASSLSGECRFWEEFKRRGFRTGFHVARGHQDCVRRRAIISVSGNPNCQSKEHAAKIVDEVWDSCFADTRPFDEIYR
binds: [9] | [10] | [11] | [5] | [6]

B6: cytochrome b (protein, UniProt P00163 1-385)
chain: MAFRKSNVYLSLVNSYIIDSPQPSSINYWWNMGSLLGLCLVIQIVTGIFMAMHYSSNIELAFSSVEHIMRDVHNGYILRYLHANGASFFFMVMFMHMAKGLYYGSYRSPRVTLWNVGVIIFILTIATAFLGYCCVYGQMSHWGATVITNLFSAIPFVGNDIVSWLWGGFSVSNPTIQRFFALHYLVPFIIAAMVIMHLMALHIHGSSNPLGITGNLDRIPMHSYFIFKDLVTVFLFMLILALFVFYSPNTLGHPDNYIPGNPLVTPASIVPEWYLLPFYAILRSIPDKLLGVITMFAAILVLLVLPFTDRSVVRGNTFKVLSKFFFFIFVFNFVLLGQIGACHVEVPYVLMGQIATFIYFAYFLIIVPVISTIENVLFYIGRVNK
binds: [1] | [10] | [4] | [12]

B7: Atp4 (protein, UniProt P05626 36-244)
chain: MSSTPEKQTDPKAKANSIINAIPGNNILTKTGVLGTSAAAVIYAISNELYVINDESILLLTFLGFTGLVAKYLAPAYKDFADARMKKVSDVLNASRNKHVEAVKDRIDSVSQLQNVAETTKVLFDVSKETVELESEAFELKQKVELAHEAKAVLDSWVRYEASLRQLEQRQLAKSVISRVQSELGNPKFQEKVLQQSISEIEQLLSKLK
binds: [7] | [8] | [12] | [5]

B8: Ina22 fragment f2 (domain or fragment, UniProt P40576 27-168)
chain: VASANAGIKRKSRFDKTMIKPLLLVMIFGSILNAVIAEKRNIIDMERKYKLKLDKLKELIRRVHDNNGKVDFDADDELKLVNLRLGIVGKNATGMKEDETDIVVPKEESLEEIWQSIIDEAKKEVIEKTPDAGVKNKEGIVT
binds: [9]

B9: Ina17 (protein, UniProt Q02888 46-182)
chain: T5 sequence
binds: [1] | [2] | [3] | [4] | [5] | [6]
